Results taken from article PMC11536904.
These are yes or no findings as the source states them, for the method shown. Binding seen in cells or lysates may run through a third protein. Some results given as binding are weak or reduced against the parent protein; the word gives no strength. Sequences can lack the tags named with a protein.

T1: HA-tagged kinase-dead MST2(K56R) (UniProt Q13188)
T1 sequence: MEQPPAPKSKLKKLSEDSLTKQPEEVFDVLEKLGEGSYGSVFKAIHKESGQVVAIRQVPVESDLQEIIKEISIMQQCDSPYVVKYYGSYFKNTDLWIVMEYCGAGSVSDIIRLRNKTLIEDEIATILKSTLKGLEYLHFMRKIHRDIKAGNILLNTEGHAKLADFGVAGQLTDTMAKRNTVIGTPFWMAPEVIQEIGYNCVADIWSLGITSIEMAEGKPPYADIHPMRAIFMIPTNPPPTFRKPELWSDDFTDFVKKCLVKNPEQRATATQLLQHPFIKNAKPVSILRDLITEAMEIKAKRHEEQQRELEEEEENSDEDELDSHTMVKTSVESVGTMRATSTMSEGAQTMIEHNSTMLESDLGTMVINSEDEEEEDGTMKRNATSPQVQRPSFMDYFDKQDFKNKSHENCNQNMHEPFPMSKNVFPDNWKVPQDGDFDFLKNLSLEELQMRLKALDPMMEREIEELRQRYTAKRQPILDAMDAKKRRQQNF

T2: HA-tagged wild-type MST1 (UniProt Q13043)
T2 sequence: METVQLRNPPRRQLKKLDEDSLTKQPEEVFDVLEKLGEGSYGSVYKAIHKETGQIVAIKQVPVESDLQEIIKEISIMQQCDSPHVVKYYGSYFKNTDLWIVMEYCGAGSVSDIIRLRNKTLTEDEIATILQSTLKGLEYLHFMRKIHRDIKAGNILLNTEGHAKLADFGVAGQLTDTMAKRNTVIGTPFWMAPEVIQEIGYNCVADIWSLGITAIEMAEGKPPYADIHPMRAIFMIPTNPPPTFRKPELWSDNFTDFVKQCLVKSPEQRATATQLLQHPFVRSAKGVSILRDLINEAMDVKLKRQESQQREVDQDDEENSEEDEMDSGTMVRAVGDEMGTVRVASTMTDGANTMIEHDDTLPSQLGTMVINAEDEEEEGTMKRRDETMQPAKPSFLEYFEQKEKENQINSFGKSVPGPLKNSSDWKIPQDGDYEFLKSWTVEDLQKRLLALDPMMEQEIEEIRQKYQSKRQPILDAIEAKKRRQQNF

T3: MYC-tagged MST2 (UniProt Q13188)
T3 sequence: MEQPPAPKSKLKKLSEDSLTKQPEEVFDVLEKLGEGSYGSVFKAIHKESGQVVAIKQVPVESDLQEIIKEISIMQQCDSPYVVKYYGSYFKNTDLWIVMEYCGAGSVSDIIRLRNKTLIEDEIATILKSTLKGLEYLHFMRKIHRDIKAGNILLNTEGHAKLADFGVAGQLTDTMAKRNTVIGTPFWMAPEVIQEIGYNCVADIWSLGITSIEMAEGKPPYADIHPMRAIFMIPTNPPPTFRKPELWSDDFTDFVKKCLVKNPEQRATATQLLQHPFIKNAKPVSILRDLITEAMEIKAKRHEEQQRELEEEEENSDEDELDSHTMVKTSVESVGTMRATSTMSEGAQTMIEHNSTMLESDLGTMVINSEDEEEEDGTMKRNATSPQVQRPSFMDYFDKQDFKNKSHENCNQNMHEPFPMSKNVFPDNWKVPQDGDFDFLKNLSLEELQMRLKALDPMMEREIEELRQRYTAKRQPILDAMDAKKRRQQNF

T4: MYC-tagged kinase-dead MST1(K59R) (UniProt Q13043)
T4 sequence: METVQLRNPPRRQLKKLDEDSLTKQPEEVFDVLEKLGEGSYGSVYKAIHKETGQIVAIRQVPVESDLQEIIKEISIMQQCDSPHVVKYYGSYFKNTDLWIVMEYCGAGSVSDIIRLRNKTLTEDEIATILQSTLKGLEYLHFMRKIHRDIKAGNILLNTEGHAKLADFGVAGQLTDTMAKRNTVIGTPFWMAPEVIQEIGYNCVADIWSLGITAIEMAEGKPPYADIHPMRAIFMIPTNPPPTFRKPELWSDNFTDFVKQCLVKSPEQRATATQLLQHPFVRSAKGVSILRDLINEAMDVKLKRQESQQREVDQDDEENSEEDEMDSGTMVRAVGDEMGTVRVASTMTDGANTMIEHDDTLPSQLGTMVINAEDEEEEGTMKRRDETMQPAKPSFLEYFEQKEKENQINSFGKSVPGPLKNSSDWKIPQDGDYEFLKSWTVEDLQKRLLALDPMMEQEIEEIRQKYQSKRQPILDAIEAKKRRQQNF

T5: MYC-tagged MST1 (UniProt Q13043)
T5 sequence: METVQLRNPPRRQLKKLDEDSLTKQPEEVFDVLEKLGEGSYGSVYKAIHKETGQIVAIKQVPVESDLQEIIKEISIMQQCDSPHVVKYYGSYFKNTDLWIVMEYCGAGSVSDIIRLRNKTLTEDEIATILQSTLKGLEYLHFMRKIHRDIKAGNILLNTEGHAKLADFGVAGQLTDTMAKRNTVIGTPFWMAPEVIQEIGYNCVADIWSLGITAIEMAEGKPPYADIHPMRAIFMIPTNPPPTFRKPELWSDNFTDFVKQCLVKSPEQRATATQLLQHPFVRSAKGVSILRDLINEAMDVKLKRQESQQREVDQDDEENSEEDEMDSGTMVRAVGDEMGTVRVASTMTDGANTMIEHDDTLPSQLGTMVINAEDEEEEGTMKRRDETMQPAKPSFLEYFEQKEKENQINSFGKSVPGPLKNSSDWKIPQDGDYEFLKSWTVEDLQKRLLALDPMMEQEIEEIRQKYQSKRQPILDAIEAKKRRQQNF

T6: Endogenous MST2 of the transfected cells (Fig. 4C) (human (endogenous in the transfected cells; HEK293T is named for immunoprecipitation transfections)) (UniProt Q13188)
T6 sequence: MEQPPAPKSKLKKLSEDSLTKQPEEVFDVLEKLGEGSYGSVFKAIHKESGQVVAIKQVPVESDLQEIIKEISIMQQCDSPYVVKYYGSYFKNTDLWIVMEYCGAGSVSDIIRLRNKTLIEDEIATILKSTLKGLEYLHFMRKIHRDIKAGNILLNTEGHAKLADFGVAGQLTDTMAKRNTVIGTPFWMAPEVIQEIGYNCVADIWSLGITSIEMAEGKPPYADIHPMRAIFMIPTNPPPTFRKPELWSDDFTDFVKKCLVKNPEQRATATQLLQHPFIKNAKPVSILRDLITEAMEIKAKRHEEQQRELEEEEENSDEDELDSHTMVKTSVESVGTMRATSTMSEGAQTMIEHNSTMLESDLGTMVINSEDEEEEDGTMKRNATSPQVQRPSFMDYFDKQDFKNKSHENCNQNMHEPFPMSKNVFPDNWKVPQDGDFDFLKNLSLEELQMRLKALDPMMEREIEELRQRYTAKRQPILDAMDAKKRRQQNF

B1: FLAG-tagged wild-type FOXF1 (Forkhead box F1) (protein, UniProt Q12946 1-379)
chain: MSSAPEKQQPPHGGGGGGGGGGGAAMDPASSGPSKAKKTNAGIRRPEKPPYSYIALIVMAIQSSPTKRLTLSEIYQFLQSRFPFFRGSYQGWKNSVRHNLSLNECFIKLPKGLGRPGKGHYWTIDPASEFMFEEGSFRRRPRGFRRKCQALKPMYSMMNGLGFNHLPDTYGFQGSAGGLSCPPNSLALEGGLGMMNGHLPGNVDGMALPSHSVPHLPSNGGHSYMGGCGGAAAGEYPHHDSSVPASPLLPTGAGGVMEPHAVYSGSAAAWPPSASAALNSGASYIKQQPLSPCNPAANPLSGSLSTHSLEQPYLHQNSHNAPAELQGIPRYHSQSPSMCDRKEFVFSFNAMASSSMHSAGGGSYYHQQVTYQDIKPCVM
B2: Epitope-tagged FOXF1 V96L mutant (protein, UniProt Q12946 1-379)
chain: MSSAPEKQQPPHGGGGGGGGGGGAAMDPASSGPSKAKKTNAGIRRPEKPPYSYIALIVMAIQSSPTKRLTLSEIYQFLQSRFPFFRGSYQGWKNSLRHNLSLNECFIKLPKGLGRPGKGHYWTIDPASEFMFEEGSFRRRPRGFRRKCQALKPMYSMMNGLGFNHLPDTYGFQGSAGGLSCPPNSLALEGGLGMMNGHLPGNVDGMALPSHSVPHLPSNGGHSYMGGCGGAAAGEYPHHDSSVPASPLLPTGAGGVMEPHAVYSGSAAAWPPSASAALNSGASYIKQQPLSPCNPAANPLSGSLSTHSLEQPYLHQNSHNAPAELQGIPRYHSQSPSMCDRKEFVFSFNAMASSSMHSAGGGSYYHQQVTYQDIKPCVM
B3: Epitope-tagged FOXF1 S101P mutant (protein, UniProt Q12946 1-379)
chain: MSSAPEKQQPPHGGGGGGGGGGGAAMDPASSGPSKAKKTNAGIRRPEKPPYSYIALIVMAIQSSPTKRLTLSEIYQFLQSRFPFFRGSYQGWKNSVRHNLPLNECFIKLPKGLGRPGKGHYWTIDPASEFMFEEGSFRRRPRGFRRKCQALKPMYSMMNGLGFNHLPDTYGFQGSAGGLSCPPNSLALEGGLGMMNGHLPGNVDGMALPSHSVPHLPSNGGHSYMGGCGGAAAGEYPHHDSSVPASPLLPTGAGGVMEPHAVYSGSAAAWPPSASAALNSGASYIKQQPLSPCNPAANPLSGSLSTHSLEQPYLHQNSHNAPAELQGIPRYHSQSPSMCDRKEFVFSFNAMASSSMHSAGGGSYYHQQVTYQDIKPCVM

What was measured:
[1] = target: T1, HA-tagged kinase-dead MST2(K56R); assay: co-IP; HEK cells co-transfected with WT FLAG-FOXF1 and WT or kinase-dead MST1/2; IP with anti-MYC or anti-HA; Dynabeads Protein G kit; FLAG-FOXF1 detected by blot
[2] = target: T2, HA-tagged wild-type MST1; assay: as above
[3] = target: T3, MYC-tagged MST2; assay: as above
[4] = target: T4, MYC-tagged kinase-dead MST1(K59R); assay: as above
[5] = target: T5, MYC-tagged MST1; assay: co-IP; HEK293T co-transfected with WT FLAG-FOXF1 and MYC-MST1 or MYC-MST2; whole-cell lysates; IP with anti-MYC or anti-FLAG; protein G agarose beads (WT constructs); western blot
[6] = target: T3, MYC-tagged MST2; assay: as above
[7] = target: T6, Endogenous MST2 of the transfected cells (Fig. 4C) (human (endogenous in the transfected cells; HEK293T is named for immunoprecipitation transfections)); assay: co-IP; transfected epitope-tagged FOXF1 (mutants V96L, S101P) and endogenous MST2; IP with antibodies against MST2; blots for MST2 and FOXF1

| Binder | binding [1] | binding [2] | binding [3] | binding [4] | binding [5] | binding [6] | binding [7] |
| --- | --- | --- | --- | --- | --- | --- | --- |
| B1 | binds | binds | binds | binds | binds | binds |  |
| B2 |  |  |  |  |  |  | binds |
| B3 |  |  |  |  |  |  | binds |
